## Cleaved PARP after 72 h of treatment

Data from the primary screen of doi:10.1371/journal.pone.0140310, rounded.

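The test systems are human melanoma cell lines, treated with two drugs together for 72 h and then stained and imaged. Each value is the cleaved-PARP-positive fraction of nuclei relative to DMSO-treated wells, in %, so that 100 equals the control and higher values mean more apoptosis. Concentrations were fixed for each drug; these are the higher of two levels. These are primary screening values without error estimates. Basal and induced levels differ widely between cell lines.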 An unselected part of the screen is shown.

All values are for the listed drug together with bexarotene (10000 nM): C=C(c1ccc(C(=O)O)cc1)c1cc2c(cc1C)C(C)(C)CCC2(C)C

Partner,MEL-HO,LB2518-MEL,UACC-62,SK-MEL-5,WM3526,SK-MEL-30
Nc1nc(F)nc2c1ncn2[C@@H]1O[C@H](CO)[C@@H](O)[C@@H]1O at 1000 nM,114,80.6,111,3170,2520,1450
CN(C)S(=O)(=O)c1ccc2c(c1)/C(=C/c1cc3c([nH]1)CCCC3)C(=O)N2 at 2000 nM,76.9,78.2,142,23.4,83.4,43.8
CN1CCN(c2ccc3nc(-c4c(N)c5c(F)cccc5[nH]c4=O)[nH]c3c2)CC1 at 500 nM,161,64.8,136,103,98.2,57.2
COc1cc([C@@H]2c3cc4c(cc3[C@@H](O[C@@H]3O[C@@H]5CO[C@@H](C)O[C@H]5[C@H](O)[C@H]3O)[C@H]3COC(=O)[C@H]23)OCO4)cc(OC)c1O at 100 nM,224,308,192,76.5,42.8,148
Cn1c(Nc2ccc(C(F)(F)F)cc2)nc2cc(Oc3ccnc(-c4ncc(C(F)(F)F)[nH]4)c3)ccc21 at 400 nM,185,514,288,781,644,211
O=C(Nc1cccc(Cl)c1)Nc1ncc(CCNc2ncnc3ccsc23)s1 at 4 nM,168,51.2,111,61.5,158,70.6
CCN(CC)CCNC(=O)c1c(C)[nH]c(/C=C2\C(=O)Nc3ccc(F)cc32)c1C at 2000 nM,32.5,72.4,87.1,83.5,297,276
O=C(Nc1ccccc1)c1cc([N+](=O)[O-])ccc1Cl at 10000 nM,87.6,80.3,214,124,160,123
Cn1cc(C2=C(c3cn(C4CCN(Cc5ccccn5)CC4)c4ccccc34)C(=O)NC2=O)c2ccccc21 at 4000 nM,151,35.5,206,128,148,54.7
CS(=O)(=O)c1ccc(C(=O)Nc2ccc(Cl)c(-c3ccccn3)c2)c(Cl)c1 at 5000 nM,148,74.3,79.7,175,166,156
c1cc(-c2cnn3cc(-c4ccc(OCCN5CCCCC5)cc4)cnc23)ccn1 at 2000 nM,134,53.9,214,530,81.2,63.1
CC(C)CCN1c2nc(Nc3cc(F)c(O)c(F)c3)ncc2N(C)C(=O)C1C (centres unmarked) at 1000 nM,235,91.8,161,187,232,146
NCC(=O)Nc1ccc(-n2nc(C(F)(F)F)cc2-c2ccc3c(ccc4ccccc43)c2)cc1 at 5000 nM,63.9,61.5,168,119,844,1910
C[C@]1(O)C[C@@H](c2nc(-c3ccc4ccc(-c5ccccc5)nc4c3)c3c(N)nccn32)C1 at 2000 nM,48.1,248,156,110,300,58.3
OCCn1cc(-c2cnc3nnn(Cc4ccc5ncccc5c4)c3n2)cn1 at 5000 nM,76.7,227,170,58.7,60.1,78.3
Cn1nnc2c(C(N)=O)ncn2c1=O at 10000 nM,149,43.1,266,39.7,61.8,148
COC(=O)c1sccc1S(=O)(=O)Nc1ccc(Nc2ccccc2)cc1OC at 5000 nM,87.2,135,240,159,79.3,127
Cc1cn(-c2cc(NC(=O)c3ccc(C)c(Nc4nccc(-c5cccnc5)n4)c3)cc(C(F)(F)F)c2)cn1 at 1000 nM,80.4,247,166,128,115,101

2 of the entries, repeated:

Partner	MEL-HO	LB2518-MEL	UACC-62	SK-MEL-5	WM3526	SK-MEL-30
CCN(CC)CCNC(=O)c1c(C)[nH]c(/C=C2\C(=O)Nc3ccc(F)cc32)c1C at 2000 nM	32.5	72.4	87.1	83.5	297	276
Nc1nc(F)nc2c1ncn2[C@@H]1O[C@H](CO)[C@@H](O)[C@@H]1O at 1000 nM	114	80.6	111	3170	2520	1450